Reference: article PMC8231590
These are yes or no findings as the source states them, for the method shown. In cells and extracts the contact can be indirect. A yes stands for co-enrichment or nearness to the bait. Other partners may have been found. Where a sequence is shown, tags or fusion partners need not be part of it.

Protein sequences, listed by entry. Tags and fused reporters are not part of them. Residues count along the entry.
UniProt Q01196, residues 106-453: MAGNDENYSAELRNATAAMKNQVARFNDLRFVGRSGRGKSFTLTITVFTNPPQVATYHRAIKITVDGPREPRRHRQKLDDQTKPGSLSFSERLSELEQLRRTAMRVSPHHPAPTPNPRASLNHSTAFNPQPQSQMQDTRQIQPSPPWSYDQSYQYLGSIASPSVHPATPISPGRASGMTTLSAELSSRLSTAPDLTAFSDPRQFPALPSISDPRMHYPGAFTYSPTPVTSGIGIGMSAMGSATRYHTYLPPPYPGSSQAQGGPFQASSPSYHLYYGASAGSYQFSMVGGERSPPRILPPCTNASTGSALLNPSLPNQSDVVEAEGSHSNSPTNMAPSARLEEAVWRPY
UniProt Q9UD57: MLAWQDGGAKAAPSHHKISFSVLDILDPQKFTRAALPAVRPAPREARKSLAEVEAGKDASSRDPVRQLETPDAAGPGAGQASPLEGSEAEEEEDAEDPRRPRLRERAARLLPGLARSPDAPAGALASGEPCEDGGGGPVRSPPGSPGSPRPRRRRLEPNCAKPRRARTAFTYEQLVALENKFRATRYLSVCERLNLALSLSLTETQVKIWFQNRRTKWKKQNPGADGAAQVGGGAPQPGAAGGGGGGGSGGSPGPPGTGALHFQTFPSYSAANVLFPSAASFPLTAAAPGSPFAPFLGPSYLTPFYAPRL

Molecular target: T1, mOGT-HaloTag fusion protein (mitochondrial O-GlcNAc transferase, full-length, with C-terminal HaloTag) (human) (UniProt O15294)
T1 sequence: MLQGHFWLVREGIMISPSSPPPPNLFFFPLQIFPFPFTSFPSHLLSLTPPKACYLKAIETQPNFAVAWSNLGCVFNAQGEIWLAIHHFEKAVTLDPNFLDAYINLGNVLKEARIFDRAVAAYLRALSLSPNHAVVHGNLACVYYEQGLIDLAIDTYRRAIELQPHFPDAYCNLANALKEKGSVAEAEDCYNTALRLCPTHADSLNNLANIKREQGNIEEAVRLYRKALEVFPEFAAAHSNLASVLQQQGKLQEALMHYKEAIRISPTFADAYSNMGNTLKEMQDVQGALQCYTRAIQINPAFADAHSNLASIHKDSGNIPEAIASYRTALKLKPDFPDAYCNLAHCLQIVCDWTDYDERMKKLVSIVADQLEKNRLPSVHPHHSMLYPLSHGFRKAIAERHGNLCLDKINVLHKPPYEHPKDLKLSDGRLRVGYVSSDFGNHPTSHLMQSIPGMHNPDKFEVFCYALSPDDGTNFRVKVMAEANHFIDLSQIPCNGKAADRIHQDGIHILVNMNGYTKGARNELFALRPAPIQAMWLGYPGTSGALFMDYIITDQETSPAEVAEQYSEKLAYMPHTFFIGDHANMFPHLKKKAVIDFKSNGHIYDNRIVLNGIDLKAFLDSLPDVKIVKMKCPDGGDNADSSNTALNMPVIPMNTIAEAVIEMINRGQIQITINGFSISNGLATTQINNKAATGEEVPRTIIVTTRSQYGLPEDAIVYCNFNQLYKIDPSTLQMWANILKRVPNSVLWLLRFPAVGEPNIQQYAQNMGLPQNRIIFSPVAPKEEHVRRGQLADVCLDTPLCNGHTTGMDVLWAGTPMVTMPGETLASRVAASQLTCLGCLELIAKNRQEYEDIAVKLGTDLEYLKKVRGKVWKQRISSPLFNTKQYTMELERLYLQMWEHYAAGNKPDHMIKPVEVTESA
Experiment: affinity purification with mass spectrometry; mOGT-HaloTag covalently captured on HaloLink Resin from about 500 ug of mitochondria-enriched lysate of transfected breast cancer cells (co-transfected with ncOGT siRNA); binding buffer 100 mM Tris-HCl, 150 mM NaCl, 0.05% IGEPAL CA-630, pH 7.6, overnight at 4 °C; four washes; eluted proteins resolved by SDS-PAGE and identified by LC-MS/MS; HaloTag alone as negative control

binding | Substance
binds | Isoform 2 of Chromodomain-helicase-DNA-binding protein 1
binds | Isoform 10 of Transcriptional repressor CTCFL
binds | Isoform AML-1L of Runt-related transcription factor 1 (from UniProt Q01196-11 1-348)
binds | NK1 transcription factor-related protein 2 (from UniProt Q9UD57 1-310)
